Holding throughout (test): co-IP
Experiment [1] has as its target GFP-SteD^37-111 (Salmonella enterica).
Experiment [2] addresses GFP-SteD^37-102 (Salmonella enterica).
The target in experiment [3] is GFP-SteD^1-102 (Salmonella enterica).
Experiment [4] deals with GFP-SteD^1-41 (Salmonella enterica).

Our source for the binding values is doi:10.1101/2025.04.23.650309.

These are yes or no findings as the source states them, for the method shown. In cells and extracts the contact can be indirect. For some of these results: A result given as binding can be weak or reduced; the word gives no strength. Tags and fused reporters may be left off the sequences shown.

B1: FLAG-TMEM127 (protein, UniProt O75204 1-238)
chain: MYAPGGAGLPGGRRRRSPGGSALPKQPERSLASALPGALSITALCTALAEPAWLHIHGGTCSRQELGVSDVLGYVHPDLLKDFCMNPQTVLLLRVIAAFCFLGILCSLSAFLLDVFGPKHPALKITRRYAFAHILTVLQCATVIGFSYWASELILAQQQQHKKYHGSQVYVTFAVSFYLVAGAGGASILATAANLLRHYPTEEEEQALELLSEMEENEPYPAEYEVINQFQPPPAYTP
Turning to B1, the binding entry in experiment [1] is “binds”; in experiment [2], “binds weakly”; in experiment [3], “binds”; in experiment [4], “no binding”.
